# Library screening results

Chains of the proteins cited; added tags and fusions are not shown.
UniProt E9BF75, entry or part of it: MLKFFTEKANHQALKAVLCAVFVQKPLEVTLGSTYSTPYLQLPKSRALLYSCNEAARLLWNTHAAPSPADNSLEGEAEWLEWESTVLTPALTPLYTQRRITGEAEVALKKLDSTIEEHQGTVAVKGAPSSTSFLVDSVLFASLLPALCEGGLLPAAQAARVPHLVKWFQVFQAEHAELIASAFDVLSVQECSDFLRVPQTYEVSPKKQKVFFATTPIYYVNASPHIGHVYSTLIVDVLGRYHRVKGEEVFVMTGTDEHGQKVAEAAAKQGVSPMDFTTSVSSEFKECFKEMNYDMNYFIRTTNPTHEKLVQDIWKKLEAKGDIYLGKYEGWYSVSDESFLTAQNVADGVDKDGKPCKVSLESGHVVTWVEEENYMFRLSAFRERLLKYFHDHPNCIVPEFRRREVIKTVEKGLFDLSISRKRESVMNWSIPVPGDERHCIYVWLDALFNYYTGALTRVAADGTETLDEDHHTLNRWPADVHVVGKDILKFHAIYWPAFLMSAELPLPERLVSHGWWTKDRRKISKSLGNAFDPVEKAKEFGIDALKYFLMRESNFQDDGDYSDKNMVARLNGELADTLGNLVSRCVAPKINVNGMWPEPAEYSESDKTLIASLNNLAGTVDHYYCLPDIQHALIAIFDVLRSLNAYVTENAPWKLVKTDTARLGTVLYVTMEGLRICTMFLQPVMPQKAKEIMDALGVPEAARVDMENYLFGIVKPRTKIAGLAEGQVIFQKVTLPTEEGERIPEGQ

Measurements from “University of Dundee, Small-Polar-MMV Screening Library” (2021), ChEMBL document CHEMBL3988442.

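Methionyl-tRNA synthetase (putative), Leishmania donovani (UniProt E9BF75). Primary screen of methionyl-tRNA synthetase; the read-out is not stated. The test concentration is not given. The values are filed as inhibition. About 68,000 compounds were tested under these conditions; 0.035% (about 24) showed 50% or more at least once.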

All values are in %. How 0% and 100% were set is not recorded. Most values in the screen are low, and negative values occur. The compounds are a random part of those screened.

SMILES	inhibition
CC(C)(C)c1nnc(CN2CCN(C(=O)N3CCCCC3)CC2)o1	13.59%
CC(C)OCCCNC(=O)CS(=O)(=O)Cc1ccc(Cl)cc1	6.25%
C[C@@H]1CN(C(=O)CCc2nncn2C)C[C@@]1(O)C1CCC1	2.957%
Cc1ccc(NC(=O)N2CCC3(CCC(C(=O)N(C)C)O3)CC2)cc1 (stereo not drawn)	7.038%
Cc1ccc(N2CCC3(CC2)CCN(C2CCOC2)CC3)nn1 (stereo not drawn)	9.408%
c1cnc(N2C[C@H]3CCC[C@@H](CN4CCCC4)[C@H]3C2)nc1	6.667%
COc1ccccc1C(C)NC(=O)N1CCC(n2cncn2)CC1 (stereo not drawn)	8.38%
COc1cccc(-c2n[nH]c3c2CN(C(=O)c2cccc(=O)[nH]2)CC3)c1	-2.41%
COCC(=O)Nc1ccc([C@@H](O)[C@H]2COCC(=O)N2C)cc1	12.03%
Cc1ccc2nc(C)cc(C(=O)N3C[C@H]4CCC[C@@]4(CO)C3)c2c1	14.7%
Cc1cccc2ncnc(N3CCOC(C)C3)c12 (stereo not drawn)	14.95%
Cc1cc(N[C@H](CO)c2ccccc2)n2nc(C)cc2n1	8.04%
CC(C)C(NC(N)=O)C(=O)NCc1ccc(N2CCCC2)nc1 (stereo not drawn)	14.42%
O=C(NCC1Cn2nnc(-c3ccsc3)c2CO1)c1ccc[nH]1 (stereo not drawn)	-229.4%
COCC(O)CN(C)c1cc(C(F)(F)F)nc(-c2cccnc2)n1 (stereo not drawn)	15.38%
Cc1nccnc1N1C[C@H]2CN(C3CCOCC3)C[C@@]2(C(=O)O)C1	17.71%
c1cnc(NCC2Cn3nnc(-c4ccoc4)c3CO2)nc1 (stereo not drawn)	17.58%
Cc1cccc(C)c1Nc1noc2c1CN(C(=O)c1cn(C)cn1)CC2	11.63%
COCC(NC(=O)NCc1cccc(C#N)c1)c1ccco1 (stereo not drawn)	2.466%
CCN1CC[C@@]2(C(=O)N(C)C)CCN(S(=O)(=O)c3ccccc3)CC[C@@H]12	8.889%
Cc1cc(CC(=O)NC2CCCN(c3ccccc3F)C2=O)n[nH]1 (stereo not drawn)	8.669%
COc1ccc(CNC(=O)C2=NN(c3ccc(C)cc3)C(=O)CN2)cc1	12.81%
CCn1cnnc1C1CCN(C(=O)c2ccoc2C)CC1	12.82%
CCN(CC)S(=O)(=O)c1ccc2c(c1)N(Cc1ccncc1)C(=O)CS2	-3.311%
Cc1noc(C)c1CN1C[C@@H]2CN(C(=O)c3cnccn3)C[C@@H]2C1	11.42%
CNc1snc(C)c1C(=O)N1CCCC(n2ccnc2C(C)C)C1 (stereo not drawn)	2.098%
CC1CCC(NC(=O)Nc2ccc(CC(=O)N(C)C)cc2)CC1 (stereo not drawn)	12.01%
O=C(c1cccc(N2CCCC2=O)c1)N1CCCC(n2cccn2)C1 (stereo not drawn)	23.19%
OC1(c2ccccc2F)CCN(Cc2ccccc2N2CCCC2)CC1	4.787%
CN(C)CC(=O)N1CCC2(CC1)COC(COc1ccccn1)C2 (stereo not drawn)	5.579%
COc1ncccc1CN1CC[C@H]2O[C@H](c3nnc(C)o3)CC[C@H]21	1.812%
COCC1CCN(c2cc(C3CN(C)CCO3)nc(C)n2)CC1 (stereo not drawn)	0.3484%
CN(Cc1ccccc1F)C(C(N)=O)c1ccccc1 (stereo not drawn)	8.982%
Cc1nccn1-c1cc(CNC(=O)C2CCC(=O)N2)ccn1 (stereo not drawn)	9.699%
CC(C)CC(=O)N1CCCCC(NC(=O)CCc2cccnc2)C1 (stereo not drawn)	17.35%
CN1CCN2CCN(C(=O)c3cc4ncc(CCO)cn4n3)CC2C1 (stereo not drawn)	5.85%
COc1ccccc1OCCN1CCCCC1Cn1cncn1 (stereo not drawn)	12.58%
CC(C)C1CCCN1C(=O)c1ccc(-n2ncc(C#N)c2N)cc1 (stereo not drawn)	20.92%
COCCN(Cc1coc(-c2ccc(OC)cc2)n1)C1CC1	10.43%
COc1nn(C)c2c1CCCN(C(=O)c1cnccn1)C2	12.4%
Cc1noc(C)c1CN1CCC2(CC1)CC(Oc1cccnc1)C2	11.23%
CN(CCOc1ccc(F)cc1)S(=O)(=O)N1CCOCC1	6.964%
O=C(c1cccc2c1OCO2)N1CCCC(n2ccnc2)C1 (stereo not drawn)	8.547%
Cc1noc(-c2ccnc(Oc3ccc(CN4CCCC4)cc3F)c2)n1	6.65%
CCS(=O)(=O)NCCCn1ncc2c(C)cccc21	-31.91%
Cc1noc(CN2CCN(Cc3cccs3)CC2)n1	12.55%
COCCNC(=O)c1nc2c(s1)CCCN2Cc1ccccc1	9.408%
O=C(Cn1ccc(=O)[nH]c1=O)NCc1cccnc1OCC(F)(F)F	12.54%
O=C(CCN1C(=O)CCC1=O)Nc1ccc(OCC(F)(F)F)nc1	9.384%
CC(C)N1CCC(N(C)c2ccnc(N(C)C)n2)CC1	6.15%
CN1CCCC(c2nnc3n2CCN(S(=O)(=O)c2ccccc2Cl)C3)C1 (stereo not drawn)	4.984%
O=C(c1ncccc1O)N1CCc2c(ncnc2N2CCOCC2)C1	16.85%
CCN(C(=O)c1cccc2c1OCO2)c1ccccc1	2.439%
CC(C)c1cnc(CN(C)C2CCN(CCS(C)(=O)=O)C2)o1 (stereo not drawn)	-14.64%
CCCC(C)(C)NC(=O)c1ccc(CC2CC(=O)NC2=O)cc1 (stereo not drawn)	8.374%
CCOC1CCN(C(=O)NCc2ccc(CN3CCOCC3)cc2)CC1	15.57%
Cc1csc(NC(=O)[C@@H]2C[C@H]3[C@H](CCN3c3ncccn3)O2)n1	9.341%
FC(F)(F)COCCN1CCOC(Cn2cccn2)C1 (stereo not drawn)	9.456%
CC(C)c1cc(N2CCC(C(C)N3CCCC3)CC2)n2nccc2n1 (stereo not drawn)	12.64%
O[C@@H]1CN(CC2=Cc3cc(Cl)ccc3OC2)CC[C@H]1N1CCCCCC1	16.03%
O=C(Nc1cnn(COc2ccc(F)cc2Cl)c1)C1CC1	17.12%
O=C(NCCCNC(=O)C1CCC1)NCCn1cccc1	19.22%
CCCN1CCCn2nc(CNS(=O)(=O)c3cccc(C#N)c3)cc2C1	15.56%
CC(C)N1CC2(CCCN(Cc3noc(C4CCCC4)n3)C2)CCC1=O (stereo not drawn)	6.145%
CNC(=O)CN(C)C(=O)c1cc(Cl)c(Cl)n1C	1.292%
CC(NCc1ccccc1O)c1ccc(-n2ccnc2)cc1 (stereo not drawn)	17.08%
NS(=O)(=O)CCNC(=O)CCc1cc(Br)cs1	16.99%
COc1ccc(CC(=O)N(C)c2cccnc2N(C)C)c(Cl)c1	12.15%
COCCN1CCC12CCN(C(=O)c1ccsc1)CC2	14.49%
CN1CCN(CCOc2ccc(NC(=O)c3ccncc3)cc2)CC1	3.073%
OC1(CN2CCCC2)COCCN(c2nnc(-c3ccccc3)s2)C1 (stereo not drawn)	14.97%
Cc1ccc(C(O)CN2CCN(Cc3nccn3C)CC2)cc1C (stereo not drawn)	23.76%
CCCN1C(=O)CC2(CCCNC2)C1=O (stereo not drawn)	13.13%
N#CCCN(Cc1cccnc1)C(=O)c1cccc(-n2cnnn2)c1	24.73%
N[C@@H]1c2ccccc2C2(CCN(C(=O)c3ccc(Cl)cn3)CC2)[C@H]1O	9.922%
CN1CC(c2ccccc2)CC12CCN(C(=O)c1cccnc1)CC2 (stereo not drawn)	3.846%
COc1cccc2c1ccn2CCC(=O)NCCCC(=O)O	16.18%
COCCN(C)C[C@@H]1CN(C(=O)c2ccc(C)c(Cl)c2)C[C@@H]1CO	17.46%
CCCc1nnc(N2CCN(c3ccccc3OCC)CC2)o1	12.32%
CNc1cc(N2CCCC2CNCc2cccnc2)ncn1 (stereo not drawn)	14.99%
COc1cccc(CC2CCCN2Cc2nccn2C)c1 (stereo not drawn)	13.28%
Cc1cc(C2CCCN2C(=O)c2cc3c(s2)CCC3)on1 (stereo not drawn)	8.163%
CCS(=O)(=O)N1CCc2ccc(NC(=O)NCCc3ccccc3)cc21	6.197%
COc1ccc(NC(=O)NCCCn2nc3ccccn3c2=O)cc1	18.71%

Some entries from above, unchanged:

| SMILES | inhibition |
|---|---|
| `CCOC1CCN(C(=O)NCc2ccc(CN3CCOCC3)cc2)CC1` | 15.57% |
| `Cc1cccc2ncnc(N3CCOC(C)C3)c12` (stereo not drawn) | 14.95% |
| `COc1nn(C)c2c1CCCN(C(=O)c1cnccn1)C2` | 12.4% |
| `FC(F)(F)COCCN1CCOC(Cn2cccn2)C1` (stereo not drawn) | 9.456% |
| `OC1(CN2CCCC2)COCCN(c2nnc(-c3ccccc3)s2)C1` (stereo not drawn) | 14.97% |
| `CN1CCCC(c2nnc3n2CCN(S(=O)(=O)c2ccccc2Cl)C3)C1` (stereo not drawn) | 4.984% |
| `CC(C)C1CCCN1C(=O)c1ccc(-n2ncc(C#N)c2N)cc1` (stereo not drawn) | 20.92% |
| `Cc1cccc(C)c1Nc1noc2c1CN(C(=O)c1cn(C)cn1)CC2` | 11.63% |